Results are given in words; binding and its absence hold for the method and conditions named. Binding seen in cells or lysates may run through a third protein. Here binding means that the protein was enriched with, or labelled near, the bait; the list need not be complete.
Target: T1, dmSpc25R (bait of an affinity purification) (Drosophila melanogaster) (UniProt Q9V3V7)
T1 sequence: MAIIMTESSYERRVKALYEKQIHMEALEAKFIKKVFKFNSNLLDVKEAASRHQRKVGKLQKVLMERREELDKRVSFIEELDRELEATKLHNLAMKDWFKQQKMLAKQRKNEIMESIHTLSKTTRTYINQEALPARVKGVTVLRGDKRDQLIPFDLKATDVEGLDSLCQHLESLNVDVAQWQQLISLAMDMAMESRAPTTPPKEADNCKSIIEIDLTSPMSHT
Test: affinity purification with mass spectrometry; Protein A- or TAP-tagged bait stably expressed in D-mel cells; whole cell extracts of asynchronous cultures; single step on Dynabeads with rabbit IgG, 2-4 hours; buffer A (75 mM HEPES pH7.5, 150 mM KCl, 1.5 mM EGTA, 1.5 mM MgCl2, 7.5% glycerol, 0.1% NP40, Benzonase), six washes; elution with 1 M NH4OH; SDS-PAGE bands analysed by LC-MS/MS (MASCOT)

binding: binds
Substance: EB1
